These results are taken from paper PMC9405727, “A Setmelanotide-like Effect at MC4R Is Achieved by MC4R Dimer Separation” (Biomolecules, 2022).

Sequences of proteins named here, by UniProt entry; tags and fusion partners are left off.
UniProt P32245: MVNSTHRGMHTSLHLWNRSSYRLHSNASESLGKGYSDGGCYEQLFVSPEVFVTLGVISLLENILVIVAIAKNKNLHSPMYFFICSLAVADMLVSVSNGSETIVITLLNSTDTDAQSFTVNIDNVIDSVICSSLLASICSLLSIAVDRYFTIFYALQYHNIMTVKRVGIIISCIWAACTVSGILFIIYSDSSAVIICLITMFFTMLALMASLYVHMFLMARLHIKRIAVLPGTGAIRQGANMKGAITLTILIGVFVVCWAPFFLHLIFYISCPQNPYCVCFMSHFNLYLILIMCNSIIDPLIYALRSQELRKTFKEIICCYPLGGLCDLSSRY

Results are given in words; binding and its absence hold for the method and conditions named. In cells and extracts the contact can be indirect. Some entries that bind do so weakly or less than the wild type.

The target of test [1] is Melanocortin 4 receptor, wild type (MC4R-WT) (UniProt P32245). Description: FRET or BRET; donor saturation assay (DSA) by NanoBRET in HEK293 cells, to test the specificity of the homodimer interaction. (BRET reads energy transfer from a luciferase to a nearby fluorophore.)
The target is the same in test [2]. Kind of test: FRET or BRET; NanoBRET in living HEK293 cells co-transfected with a NanoLuc fusion (donor; written as binder) and a HaloTag fusion (acceptor, ligand 618; written as target), NL/HT DNA ratio 1:5; BRET ratio in mBU after subtraction of the no-acceptor control; delta BRET = chimera minus MC4R-WT homodimer.

Turning to “Melanocortin 4 receptor, wild type (MC4R-WT) (from UniProt P32245 1-332)”, the binding entry in test [1] and in test [2] was “binds” in each case.
